Percent effect of library compounds

Sequences of proteins named here, by UniProt entry; tags and fusion partners are left off. Residues count along the entry.
UniProt A4I591, 1-473: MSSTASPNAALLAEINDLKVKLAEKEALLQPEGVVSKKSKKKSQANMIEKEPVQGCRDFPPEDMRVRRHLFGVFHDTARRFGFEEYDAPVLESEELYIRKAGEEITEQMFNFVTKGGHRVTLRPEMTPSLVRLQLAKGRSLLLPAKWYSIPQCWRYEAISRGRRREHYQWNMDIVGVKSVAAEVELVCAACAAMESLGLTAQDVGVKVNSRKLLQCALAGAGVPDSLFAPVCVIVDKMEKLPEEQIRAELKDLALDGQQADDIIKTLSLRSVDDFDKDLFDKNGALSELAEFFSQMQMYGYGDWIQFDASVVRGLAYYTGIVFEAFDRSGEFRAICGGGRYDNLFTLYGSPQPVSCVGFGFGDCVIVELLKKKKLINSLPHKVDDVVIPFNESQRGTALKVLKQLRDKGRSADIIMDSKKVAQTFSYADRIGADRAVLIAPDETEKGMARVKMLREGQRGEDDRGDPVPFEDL
UniProt P9WNZ1, whole entry: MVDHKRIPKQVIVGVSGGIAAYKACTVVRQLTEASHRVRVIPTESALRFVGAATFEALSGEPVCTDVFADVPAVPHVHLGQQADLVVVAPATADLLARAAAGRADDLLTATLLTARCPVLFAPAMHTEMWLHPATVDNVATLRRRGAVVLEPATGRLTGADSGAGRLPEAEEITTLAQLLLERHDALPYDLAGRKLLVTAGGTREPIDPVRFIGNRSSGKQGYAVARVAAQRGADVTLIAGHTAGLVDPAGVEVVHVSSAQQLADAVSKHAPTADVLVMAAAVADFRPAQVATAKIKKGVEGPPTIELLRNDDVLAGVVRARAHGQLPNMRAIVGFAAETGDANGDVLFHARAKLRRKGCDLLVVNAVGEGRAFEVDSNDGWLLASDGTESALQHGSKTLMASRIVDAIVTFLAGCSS
UniProt Q8IDJ8, 1-583: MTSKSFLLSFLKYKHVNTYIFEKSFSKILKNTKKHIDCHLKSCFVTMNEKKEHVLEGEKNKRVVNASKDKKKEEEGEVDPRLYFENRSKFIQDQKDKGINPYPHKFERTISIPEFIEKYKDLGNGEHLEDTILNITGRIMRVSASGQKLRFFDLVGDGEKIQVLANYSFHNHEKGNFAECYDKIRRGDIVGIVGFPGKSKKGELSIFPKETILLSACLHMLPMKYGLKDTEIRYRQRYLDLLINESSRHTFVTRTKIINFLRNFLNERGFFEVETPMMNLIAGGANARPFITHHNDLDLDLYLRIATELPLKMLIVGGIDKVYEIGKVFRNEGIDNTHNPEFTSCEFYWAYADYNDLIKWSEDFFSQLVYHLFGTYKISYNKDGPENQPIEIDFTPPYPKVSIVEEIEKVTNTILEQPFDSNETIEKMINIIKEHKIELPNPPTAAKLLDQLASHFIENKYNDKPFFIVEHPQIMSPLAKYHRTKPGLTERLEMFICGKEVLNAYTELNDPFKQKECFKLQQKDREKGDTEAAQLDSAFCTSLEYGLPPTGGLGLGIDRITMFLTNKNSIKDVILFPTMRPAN
UniProt P9WFT3, whole entry: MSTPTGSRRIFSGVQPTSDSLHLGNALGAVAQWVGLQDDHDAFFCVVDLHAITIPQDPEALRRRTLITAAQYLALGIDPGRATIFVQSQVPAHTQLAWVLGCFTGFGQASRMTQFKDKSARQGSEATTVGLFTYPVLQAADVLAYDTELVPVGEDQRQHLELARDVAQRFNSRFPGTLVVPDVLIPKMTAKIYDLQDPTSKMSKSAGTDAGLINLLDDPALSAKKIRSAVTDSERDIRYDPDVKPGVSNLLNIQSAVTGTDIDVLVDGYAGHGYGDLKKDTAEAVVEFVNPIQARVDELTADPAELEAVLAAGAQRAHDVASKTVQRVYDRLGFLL

Source: ChEMBL document CHEMBL3988442, “University of Dundee, Small-Polar-MMV Screening Library” (2021).

Results are given as percent effect. The controls that fix the scale are not given in the record; negative values are as filed. The compounds are a random part of those screened. Two or more numbers in one place are separate tests of the same structure; such repeats can differ widely. A dash means the value is not listed here; it may have been measured.

A: 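Histidine-tRNA ligase, Leishmania infantum (UniProt A4I591). Enzyme assay of histidyl-tRNA synthetase; the read-out is not stated. Compounds at 30 µM. Direction is inferred from retests: higher values go with stronger inhibition. The assay is labelled LdHisRS but filed under L. infantum. Of about 69,000 compounds tested this way, about 410 (0.6%) reached 50% or more in at least one test.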
B: 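Coenzyme A biosynthesis protein CoaBC, Mycobacterium tuberculosis (UniProt P9WNZ1). Enzyme assay of CoaBC with a phosphate dye (Biomol Green) read at 650 nm. Concentration: 30 µM. Direction is inferred from only a few compounds that gave an IC50; most scored high, so higher reads as stronger inhibition. Most strong results did not repeat in a second test. About 67,000 compounds were tested under these conditions; 0.06% (about 40) showed 50% or more at least once.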
C: 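Lysine-tRNA ligase, Plasmodium falciparum 3D7 (UniProt Q8IDJ8). Enzyme assay of the cytosolic lysyl-tRNA synthetase in 384-well plates, read by luminescence. Compounds at 30 µM. Higher reads as stronger inhibition, judged from the few compounds that gave an IC50. Of about 69,000 compounds tested this way, about 49 (0.071%) reached 50% or more in at least one test.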
D: 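Tryptophan-tRNA ligase, Mycobacterium tuberculosis (UniProt P9WFT3). Enzyme assay of tryptophanyl-tRNA synthetase; the read-out is not stated. Compounds at 10 µM. Higher most likely means stronger inhibition; the record gives no direction and few retests gave an IC50. Size under these conditions: about 65,000 compounds, about 64 of them at 50% or above in at least one test.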

| Compound | A | B | C | D |
|---|---|---|---|---|
| `OC(CNC1CCOCC1)c1ccc(Cl)c(F)c1` (stereo not drawn) | 15.32 | -9.728 | 7.51 | 1.519 |
| `CC(=O)N1CCN([C@@H]2CCC[C@@H](N(C)C(=O)C3CC3)[C@H]2O)CC1` | -15.94 | -5.097 | 3.126 | - |
| `COc1ccc(CCCC(=O)N2CCCC(n3cncn3)C2)cc1` (stereo not drawn) | 15.56 | 3.406 | -2.067 | 4.866 |
| `NS(=O)(=O)c1cc(C(=O)N2CCCCC2)cs1` | 2.857 | 60.44 and 23.28 | 2.911 | -3.96 |
| `CC(NC(=O)N1CCc2ccccc2C1)c1nncn1C` (stereo not drawn) | 19.78 | 5.732 | 1.673 | -1.325 |
| `CCC(C(=O)N1CCS(=O)(=O)CC1)n1cccn1` (stereo not drawn) | 17.74 | -2.836 | 6.245 | 0.7508 |
| `Fc1ccccc1Cn1c(C2CCNCC2)cc2cccnc21` | 11.27 | -8.631 | 2.632 | -3.298 |
| `Cc1nnc(SCC(=O)c2cc3c(cc2Cl)NC(=O)C3)o1` | 47.37 | 2.025 | 12.98 | 3.067 |
| `O=C(CN1CCCC1Cn1cccn1)NC1CCN(C2CC2)CC1` (stereo not drawn) | 9.677 | 0.2445 | 2.215 | 2.271 |
| `Cc1cccc(C)c1NC(=O)c1cccc(CN2CCCC2C)c1` (stereo not drawn) | 7.692 | -7.445 | 2.495 | -5.307 |
| `COc1ccc(C2CCCN2Cc2cnn(C)c2)cc1` (stereo not drawn) | 8.861 | 1.901 | 2.729 | -1.971 |
| `CN(C)C(=O)N1C[C@@H]2CC[C@H](C1)N(C(=O)CCCn1cncn1)C2` | 23.08 | 0.6397 | 2.891 | -0.8514 |
| `Cc1ccc2c(n1)N(C)CCN(C(=O)C1CC1)C2` | 11.32 | 2.919 | 8.14 | 0.9444 |
| `Cc1cc(C(F)F)nn1C(C)C(=O)NCc1ncc[nH]1` (stereo not drawn) | 8.451 | -3.699 | 0.7076 | -6.596 |
| `Cc1noc(C)c1CN1CCC2(CC1)NC(=O)CC2c1ccncc1` (stereo not drawn) | -7.273 | 3.782 | 2.81 | 0.8718 |
| `CN(Cc1cccnc1)C1CC2(CCN(c3ccccn3)CC2)C1` | 13.87 | 6.218 | 7.138 | 2.115 |
| `Cc1csc(C(Cc2ccsc2)NC(=O)CN(C)Cc2cccnc2)n1` (stereo not drawn) | 8.054 | -1.598 | 0.4661 | -10.06 |
| `O=C(NC1CC(F)(F)C1)[C@]12COC[C@H]1CN(Cc1ccsc1)C2` | 18 | 1.97 | 3.197 | -4.988 |
| `CC(C(=O)N1CCCC1)S(=O)(=O)Cc1noc(C(C)(C)C)n1` (stereo not drawn) | 5.714 | 22.22 and 34.51 | 2.579 | 1.165 |
| `CCc1n[nH]c(C2CN(C(=O)c3ccc4c(c3)CCC4)CCO2)n1` (stereo not drawn) | 4.425 | 1.567 | 2.763 | 0.1254 |
| `O=C(CN1CCc2ccccc21)NCc1ccc(Cl)cc1` | 26.03 | 1.282 | 3.595 | 6.437 |
| `COCC(=O)N1CCN(c2cc(-n3cccc3)nc(C)n2)CC1` | 15.25 | 2.886 | 5.205 | -3.233 |
| `OCCn1nccc1C1CCN(CCOc2ccccc2Cl)CC1` | 7.895 | 2.216 | 2.024 | -3.123 |
| `N#Cc1cccc(OCc2ccoc2C(=O)N2CCCCCC2)c1` | 3.54 | 10.45 | 5.777 | 0.2867 |
| `CCc1c(C(=O)N2CCCC(N(C)C)C2)cnn1C(C)(C)C` (stereo not drawn) | 11.54 | 2.151 | 0.4979 | 32.78 |
| `CC(C)Cn1cncc1Cn1cccc(C(F)(F)F)c1=O` | 12.82 | 2.101 | -4.856 | 10.12 |
| `O=C(CCn1cc(Cl)cn1)N1CCN(CC2CC2)[C@@H]2CS(=O)(=O)C[C@@H]21` | 14.75 | -2.814 | 8.155 | 2.415 |
| `Cc1cnc(N2C[C@@H]3[C@@H](C(=O)NC(C)C)CCS(=O)(=O)[C@@H]3C2)nc1` | 7.018 | -1.525 | -5.888 | 11.28 |
| `O=C(Nc1ccccc1F)N(CCO)CCOCC(F)(F)F` | 4.386 | 5.305 | 3.97 | 1.763 |
| `Cc1cc(C(=O)N2CCn3cc(CN(C)C)nc3C2)no1` | 10 | 5.5 | -0.6717 | 0.6255 |
| `CC(C)CNC(=O)c1nnsc1-c1ccccc1` | 20.99 | 6.122 | 4.671 | 2.164 |
| `CCS(=O)(=O)N1CCc2ccc(NC(=O)Nc3cccc(C)c3)cc21` | 6.742 | 1.805 | 2.477 | 6.31 |
| `Cn1cc(C[C@H]2[C@H](N3CCOCC3)CCN2C(=O)c2ccoc2)cn1` | -1 | 5.068 | -2.292 | -4.776 |
| `O=C(c1ccc(Cl)s1)N1CC(c2nc(-c3ccc[nH]c3=O)no2)C1` | 10.43 | -4.44 | 10.79 | 1.748 |
| `CNC(=O)COC1COC2(CCN(c3cnccn3)CC2)C1` (stereo not drawn) | 21.05 | 9.937 | 0.32 | -0.3524 |
| `CCc1nc(CN2CCCN(C(=O)c3occc3C)CC2)cs1` | 22.64 | 8.632 | 4.301 | -2.308 |
| `N#Cc1ccc(CNCCS(=O)(=O)N2CCc3ccccc32)cc1` | 22.52 | 0.3891 | 5.447 | -0.5698 |
| `CCOc1c(F)cccc1C(=O)N(C)CCn1cccn1` | 7.865 | 8.854 | 1.75 | 1.052 |
| `COCC(=O)N1CCC2(CCCN(Cc3cc(OC)ccc3F)C2)C1` (stereo not drawn) | 4.11 | 2.447 | 1.473 | 1.044 |
| `CCn1nc(C)c2nc(C(C)C)nc(NCc3ccccn3)c21` | 17.7 | 0.1148 | -0.02512 | 7.168 |
| `CN(C)C(=O)N[C@H]1CN(C2CCOCC2)[C@@H]2CCCO[C@H]12` | 3.509 | -3.594 | -5.205 | 9.232 |
| `COc1cccc(Cl)c1C(C(=O)O)N(C)Cc1nnc(C)o1` (stereo not drawn) | 9.677 | 1.845 | -1.347 | -0.2129 |
| `COCCCN1C(=O)CC[C@H]2CN(c3ccc(C(N)=O)cn3)CC[C@H]21` | 2.5 | -1.366 | -2.691 | -3.473 |
| `O=C(CCc1ccsc1)Nc1cccnc1N1CCCC1` | 16.67 | -2.999 | -0.6218 | -8.898 |